This is one part of the list. Many values rest on one well or one pass, so single values are uncertain.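 The apoptosis fraction was the count of cleaved-PARP antibody-stained nuclei relative to all DNA-stained nuclei, imaged in 1,536-well plates. Screening doses were set so most cells survived, and baseline and induced cleaved-PARP levels vary greatly across cell lines.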
Key:
Assay in all cases: cleaved PARP positive nuclei fraction relative to DMSO control; melanoma cells; higher = more apoptosis
Details in all cases: library dose: low library concentration; 72 h
[1] = tested on: WM115
[2] = tested on: WM1716
[3] = tested on: WM1745
[4] = tested on: WM3526
[5] = tested on: WM3619
[6] = tested on: WM451Lu

Compound | cleaved PARP positive nuclei fraction [1] [%] | cleaved PARP positive nuclei fraction [2] [%] | cleaved PARP positive nuclei fraction [3] [%] | cleaved PARP positive nuclei fraction [4] [%] | cleaved PARP positive nuclei fraction [5] [%] | cleaved PARP positive nuclei fraction [6] [%]
COc1ccc2c(c1)CCC1C2CCC2(C)C(NCCCCCCN3C(=O)C=CC3=O)CCC12 (configuration not stated) + CCCCCCCCCCCC1=C(O)C(=O)C=C(O)C1=O [Embelin] (first compound 0.4 µM, partner dose 1.2 µM) | 119 | 52.1 | 94.3 | 66.8 | 62.3 | 63.4
Oc1nc(-c2ccc(C(F)(F)F)cc2)nc2c1CSCC2 + CCCCCCCCCCCC1=C(O)C(=O)C=C(O)C1=O [Embelin] (first compound 2 µM, partner dose 1.2 µM) | 68.2 | 108 | 143 | 59.7 | 84.1 | 65
O=C(O)c1ccc(-c2c[nH]c3ncc(-c4ccccc4)cc23)cc1C1CCCC1 + CCCCCCCCCCCC1=C(O)C(=O)C=C(O)C1=O [Embelin] (first compound 0.16 µM, partner dose 1.2 µM) | 73.5 | 92.2 | 93.9 | 68.5 | 249 | 80.3
COc1ccc(-c2ccc3c(N4CCOCC4)nc(N4C[C@@H](C)O[C@@H](C)C4)nc3n2)cc1CO + O=S(=O)(c1ccccc1)N(CC(F)(F)F)c1ccc(C(O)(C(F)(F)F)C(F)(F)F)cc1 [T0901317] (first compound 0.02 µM, partner dose 1.4 µM) | 57.4 | 82.8 | 131 | 164 | 104 | 141
Cc1cc([N+](=O)[O-])ccc1NS(=O)(=O)c1cc(Cl)ccc1Cl + COc1cc(N2CCC(N3CCN(C)CC3)CC2)ccc1Nc1ncc(Cl)c(Nc2ccccc2S(=O)(=O)C(C)C)n1 [NVP-TAE684] (first compound 1 µM, partner dose 0.08 µM) | 148 | 136 | 209 | 58.9 | 77.2 | 65.9
CN(C)S(=O)(=O)c1ccc2c(c1)/C(=C/c1cc3c([nH]1)CCCC3)C(=O)N2 + COc1cc2c(Oc3ccc4[nH]c(C)cc4c3F)ncnc2cc1OCCCN1CCCC1 [cediranib] (first compound 0.4 µM, partner dose 0.4 µM) | 80.1 | 99.5 | 93.7 | 123 | 112 | 84.8
O=C(Nc1ccccc1)c1cc([N+](=O)[O-])ccc1Cl + O=C(O)C(=O)Nc1sc2c(c1C(=O)O)CCNC2 [TCS401] (first compound 2 µM, partner dose 1.66667 µM) | 34.3 | 57.7 | 111 | 141 | 87.6 | 44
COc1ccc(COc2ccc(Cc3cnc(N)nc3N)cc2OC)cc1 + COc1cc2ncnc(Nc3ccc(Oc4ccccc4)cc3)c2cc1OC [SrcI1] (first compound 1 µM, partner dose 2 µM) | 60.1 | 58.3 | 122 | 120 | 90.8 | 183
COc1ccc2c(c1)CCC1C2CCC2(C)C(NCCCCCCN3C(=O)C=CC3=O)CCC12 (configuration not stated) + COc1cc(N2CCC(N3CCN(C)CC3)CC2)ccc1Nc1ncc(Cl)c(Nc2ccccc2S(=O)(=O)C(C)C)n1 [NVP-TAE684] (first compound 0.4 µM, partner dose 0.08 µM) | 70.7 | 86.6 | 248 | 73.9 | 79.8 | 81
CCN(CC)CCCCNc1ncc2cc(-c3cc(OC)cc(OC)c3)c(NC(=O)NC(C)(C)C)nc2n1 + O=c1cc(-c2cccc3c2Sc2ccccc2S3)oc(N2CCOCC2)c1 [KU55933] (first compound 0.1 µM, partner dose 1 µM) | 66.8 | 65.4 | 114 | 81.9 | 97.2 | 540
O=C(Nc1ccccc1)c1cc([N+](=O)[O-])ccc1Cl + COc1ccc2c(c1)CCC1C2CCC2(C)C(NCCCCCCN3C(=O)C=CC3=O)CCC12 [U73122] (first compound 2 µM, partner dose 0.4 µM) | 137 | 90.1 | 110 | 62.9 | 89.6 | 141
NCC(=O)Nc1ccc(-n2nc(C(F)(F)F)cc2-c2ccc3c(ccc4ccccc43)c2)cc1 + O=C(O)C(=O)Nc1sc2c(c1C(=O)O)CCNC2 [TCS401] (first compound 1 µM, partner dose 1.66667 µM) | 68 | 38.2 | 111 | 120 | 86.5 | 175
O=C(O)c1ccc(-c2c[nH]c3ncc(-c4ccccc4)cc23)cc1C1CCCC1 + O=S(=O)(c1ccccc1)N(CC(F)(F)F)c1ccc(C(O)(C(F)(F)F)C(F)(F)F)cc1 [T0901317] (first compound 0.16 µM, partner dose 1.4 µM) | 50.3 | 182 | 116 | 64 | 104 | 126
Cn1cc(/C=C2\C(=O)Nc3cccnc32)c2ccccc21 + CCCCCCCCCCCC1=C(O)C(=O)C=C(O)C1=O [Embelin] (first compound 0.4 µM, partner dose 1.2 µM) | 208 | 53.3 | 107 | 67.4 | 91 | 58.1
CN(C)S(=O)(=O)c1ccc2c(c1)/C(=C/c1cc3c([nH]1)CCCC3)C(=O)N2 + N#Cc1c(O)c2c(-c3ccc(-c4ccccc4O)cc3)csc2[nH]c1=O [A769662] (first compound 0.4 µM, partner dose 2 µM) | 108 | 119 | 245 | 71.6 | 72.5 | 186
COc1ccc(-c2ccc3c(N4CCOCC4)nc(N4C[C@@H](C)O[C@@H](C)C4)nc3n2)cc1CO + COc1cc2ncnc(Nc3ccc(Oc4ccccc4)cc3)c2cc1OC [SrcI1] (first compound 0.02 µM, partner dose 2 µM) | 141 | 65.7 | 116 | 107 | 115 | 112
NCC(=O)Nc1ccc(-n2nc(C(F)(F)F)cc2-c2ccc3c(ccc4ccccc43)c2)cc1 + CCCCCCCCCCCC1=C(O)C(=O)C=C(O)C1=O [Embelin] (first compound 1 µM, partner dose 1.2 µM) | 145 | 91.4 | 111 | 139 | 90.9 | 122
O=S(=O)(c1ccccc1)N(CC(F)(F)F)c1ccc(C(O)(C(F)(F)F)C(F)(F)F)cc1 + O=C1NC(=O)/C(=C/c2ccc(-c3ccc(F)cc3O)o2)S1 [AS252424] (first compound 1.4 µM, partner dose 1 µM) | 182 | 123 | 130 | 74.5 | 114 | 37.5
Oc1cc(-c2nc(-c3ccccc3)[nH]c2-c2ccncc2)ccc1Cl + CC(C)CCN1c2nc(Nc3cc(F)c(O)c(F)c3)ncc2N(C)C(=O)C1C [BID1870] (first compound 0.2 µM, partner dose 0.2 µM) | 288 | 43.6 | 130 | 231 | 93.8 | 130
COc1ccc(COc2ccc(Cc3cnc(N)nc3N)cc2OC)cc1 + O=S(=O)(c1ccccc1)N(CC(F)(F)F)c1ccc(C(O)(C(F)(F)F)C(F)(F)F)cc1 [T0901317] (first compound 1 µM, partner dose 1.4 µM) | 61.2 | 54.1 | 111 | 172 | 88.6 | 69.3
N#Cc1c(O)c2c(-c3ccc(-c4ccccc4O)cc3)csc2[nH]c1=O + O=C1NC(=O)/C(=C/c2ccc(-c3ccc(F)cc3O)o2)S1 [AS252424] (first compound 2 µM, partner dose 1 µM) | 140 | 35 | 100 | 86.1 | 71 | 29.4
CCN(CC)CCCCNc1ncc2cc(-c3cc(OC)cc(OC)c3)c(NC(=O)NC(C)(C)C)nc2n1 + O=C(O)C(=O)Nc1sc2c(c1C(=O)O)CCNC2 [TCS401] (first compound 0.1 µM, partner dose 1.66667 µM) | 85.2 | 66.9 | 95.9 | 73.1 | 64.6 | 21.8
COc1ccc(COc2ccc(Cc3cnc(N)nc3N)cc2OC)cc1 + Oc1nc(-c2ccc(C(F)(F)F)cc2)nc2c1CSCC2 [XAV939] (first compound 1 µM, partner dose 2 µM) | 68.2 | 92.2 | 136 | 64.5 | 86.5 | 54.7
COC(=O)c1sccc1S(=O)(=O)Nc1ccc(Nc2ccccc2)cc1OC + CCCCCCCCCCCC1=C(O)C(=O)C=C(O)C1=O [Embelin] (first compound 1 µM, partner dose 1.2 µM) | 138 | 79 | 101 | 56.5 | 73.3 | 52.8
O=C(O)c1ccc(-c2c[nH]c3ncc(-c4ccccc4)cc23)cc1C1CCCC1 + O=c1cc(-c2cccc3c2Sc2ccccc2S3)oc(N2CCOCC2)c1 [KU55933] (first compound 0.16 µM, partner dose 1 µM) | 97.9 | 55.6 | 102 | 36.8 | 57.7 | 103
O=C(O)c1ccc(-c2c[nH]c3ncc(-c4ccccc4)cc23)cc1C1CCCC1 + COc1cc(N2CCC(N3CCN(C)CC3)CC2)ccc1Nc1ncc(Cl)c(Nc2ccccc2S(=O)(=O)C(C)C)n1 [NVP-TAE684] (first compound 0.16 µM, partner dose 0.08 µM) | 53 | 172 | 241 | 57.2 | 92.9 | 37.2
CCN(CC)CCCCNc1ncc2cc(-c3cc(OC)cc(OC)c3)c(NC(=O)NC(C)(C)C)nc2n1 + COc1cc2ncnc(Nc3ccc(Oc4ccccc4)cc3)c2cc1OC [SrcI1] (first compound 0.1 µM, partner dose 2 µM) | 62.7 | 72.4 | 226 | 67.6 | 111 | 100

Single records, from the list above.
N#Cc1c(O)c2c(-c3ccc(-c4ccccc4O)cc3)csc2[nH]c1=O + O=C1NC(=O)/C(=C/c2ccc(-c3ccc(F)cc3O)o2)S1 [AS252424] (first compound 2 µM, partner dose 1 µM) is listed as cleaved PARP positive nuclei fraction [1] [%]: 140; cleaved PARP positive nuclei fraction [2] [%]: 35; cleaved PARP positive nuclei fraction [3] [%]: 100; cleaved PARP positive nuclei fraction [4] [%]: 86.1; cleaved PARP positive nuclei fraction [5] [%]: 71; cleaved PARP positive nuclei fraction [6] [%]: 29.4
CN(C)S(=O)(=O)c1ccc2c(c1)/C(=C/c1cc3c([nH]1)CCCC3)C(=O)N2 + N#Cc1c(O)c2c(-c3ccc(-c4ccccc4O)cc3)csc2[nH]c1=O [A769662] (first compound 0.4 µM, partner dose 2 µM) is listed as cleaved PARP positive nuclei fraction [1] [%]: 108; cleaved PARP positive nuclei fraction [2] [%]: 119; cleaved PARP positive nuclei fraction [3] [%]: 245; cleaved PARP positive nuclei fraction [4] [%]: 71.6; cleaved PARP positive nuclei fraction [5] [%]: 72.5; cleaved PARP positive nuclei fraction [6] [%]: 186

— the supplement of paper PMC4604168 (melanoma cell lines)
